# Experimental data: patent US20150065417 (published 2015)
# Assay: peptide synthesis
# Details: purification step
substance,measurement,setting,value
Micafungin sodium,final HPLC purity,"sodium, run 1",99.88%
same,final HPLC purity,"sodium, run 2",96.29%
same,final HPLC purity,run 1,99.00%
same,final HPLC purity,run 2,96.17%
same,final HPLC purity,run 3,99.40%
same,final HPLC purity,run 4,96.16%
same,final HPLC purity,run 5,99.79%
same,final HPLC purity,run 6,96.29%
same,final HPLC purity,run 7,99.88%
same,step yield,sodium,82.7%
same,step yield,run 1,93%
same,step yield,run 2,91%
same,step yield,run 3,93.9%
same,step yield,run 4,86.1%
same,step yield,run 5,91.1%
same,step yield,run 6,82.1%
same,step yield,run 7,88.5%
